Measured values from patent publication US8017809B2, “Bisboron compound” (Japan Science and Technology Agency, priority 2005, dated 2011).
Some results were stated once for a whole list of compounds, not compound by compound. At least one structure is not confirmed: it was looked up by name or label, or the drawing left a doubt.

Test system: capacitative calcium entry (CCE) in IP3 receptor-deficient strain of cell line DT40
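Further: intracellular Ca2+ read as 340/380 nm excitation ratio at 510 nm emission, stores emptied by thapsigargin without external Ca2+, then 2 mM CaCl2 added, inhibition of the ensuing Ca2+ rise.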

Molecule	IC50
OB(c1ccccc1)c1ccc(COc2ccc(B(O)c3ccccc3)cc2)cc1 [Example 51, (4-Phenylhydroxyborylphenyl) (4′-phenylhydroxyborylbenzyl) ether]	< 3000 nM
NCCOB(c1ccccc1)c1ccc(COc2ccc(B(OCCN)c3ccccc3)cc2)cc1 [Example 52, (4-Phenylaminoethoxyborylphenyl) (4′-phenylaminoethoxyborylbenzyl) ether]	< 3000 nM
NCCOB(c1ccc(COCCOc2ccc(B(OCCN)c3cccs3)cc2)cc1)c1cccs1 [Example 53, (4-(2-Thiopheneaminoethoxyboryl)phenoxyethyl) (4′-(2-thiopheneaminoethoxyboryl)benzyl) ether]	< 3000 nM
NCCOB(c1ccc(COc2ccc(B(OCCN)c3ccc(C(F)(F)F)cc3)cc2)cc1)c1ccc(C(F)(F)F)cc1 [Example 55]	< 3000 nM
CC(C)(C)c1cc(B(OCCN)c2ccccc2)c2c(c1)C(C)(C)c1cc(C(C)(C)C)cc(B(OCCN)c3ccccc3)c1O2 [Example 60, 4,5-Di(phenylaminoethoxyboryl)-2,7-di-t-butyl-9,9-dimethylxanthrene]	< 3000 nM
CN(C)CCOB(c1ccccc1)c1cccc(COCc2cccc(B(OCCN(C)C)c3ccccc3)c2)c1 [Example 85, Bis(3,3′-(phenyl-N,N-dimethylaminoethoxyboryl)benzyl) ether]	< 3000 nM
Cc1ccc(B(O)c2ccc(COCc3ccc(B(O)c4ccc(C)c(Cl)c4)cc3)cc2)cc1Cl [Example 90, Bis(4,4′-(3-chloro-4-methylphenyl-hydroxyboryl)benzyl) ether]	< 3000 nM
COc1ccc(B(OCCN)c2ccc(COCc3ccc(B(OCCN)c4ccc(OC)cc4)cc3)cc2)cc1 [Example 94, Bis(4,4′-(p-methoxyphenyl-aminoethoxyboryl)benzyl) ether]	< 3000 nM
Cc1ccc(B(OCCN)c2ccc(COCc3ccc(B(OCCN)c4ccc(C)c(Cl)c4)cc3)cc2)cc1Cl [Example 102, Bis(4,4′-(3-chloro-4-methylphenyl-aminoethoxyboryl)benzyl) ether]	< 3000 nM
CNCCOB(c1ccc(COCc2ccc(B(OCCNC)c3ccc(C)c(Cl)c3)cc2)cc1)c1ccc(C)c(Cl)c1 [Example 103, Bis(4,4′-(3-chloro-4-methylphenyl-N-methylaminoethoxyboryl)benzyl) ether]	< 3000 nM
Cc1ccc(B(OCCN(C)C)c2ccc(COCc3ccc(B(OCCN(C)C)c4ccc(C)c(Cl)c4)cc3)cc2)cc1Cl [Example 104, Bis(4,4′-(3-chloro-4-methylphenyl-N,N-dimethylaminoethoxyboryl)benzyl) ether]	< 3000 nM
Cc1ccc(B(OCC2CCCCN2)c2ccc(COCc3ccc(B(OCC4CCCCN4)c4ccc(C)c(Cl)c4)cc3)cc2)cc1Cl (stereo not drawn) [Example 105, Bis(4,4′-(3-chloro-4-methylphenyl-2-piperidylmethyloxyboryl)benzyl) ether]	< 3000 nM
CN(C)CCOB(c1ccc(COCc2ccc(B(OCCN(C)C)c3ccc(C(F)(F)F)cc3)cc2)cc1)c1ccc(C(F)(F)F)cc1 [Example 106, Bis(4,4′-(p-trifluoromethylphenyl-N,N-dimethylaminoethoxyboryl)benzyl) ether]	< 3000 nM
NCCOB(c1ccc(COCc2ccc(B(OCCN)c3ccc(C(F)(F)F)cc3)cc2)cc1)c1ccc(C(F)(F)F)cc1 [Example 108, Bis(4,4′-(p-trifluoromethylphenyl-aminoethoxyboryl)benzyl) ether]	< 3000 nM
CN(C)CCOB(c1ccccc1)c1ccc(COc2ccc(B(OCCN(C)C)c3ccccc3)cc2)cc1 [Example 110, (4-Phenyl-N,N-dimethylaminoethoxyborylphenyl) 4′-(N,N-dimethylaminoethoxyborylbenzyl) ether]	< 3000 nM
c1ccc(B(OCc2ccccn2)c2ccc(COc3ccc(B(OCc4ccccn4)c4ccccc4)cc3)cc2)cc1 [Example 111, (4-Phenyl-2-pyridylmethoxyborylphenyl) (4′-phenyl-2-pyridylmethoxyborylbenzyl) ether]	< 3000 nM
c1ccc(B(OCC2CCCN2)c2ccc(COCc3ccc(B(OCC4CCCN4)c4ccccc4)cc3)cc2)cc1 (stereo not drawn) [Example 134, Bis(4,4′-(phenyl-2-pyrrolidinemethoxyboryl)benzyl) ether]	< 3000 nM
CCCCNCCOB(c1ccccc1)c1ccc(COCc2ccc(B(OCCNCCCC)c3ccccc3)cc2)cc1 [Example 136, Bis(4,4′-(phenyl-butylaminoethoxyboryl)benzyl) ether]	< 3000 nM
CC(CCNCCN)OB(c1ccccc1)c1cccc(COCc2cccc(B(OC(C)CCNCCN)c3ccccc3)c2)c1 (stereo not drawn) [Example 152, Bis(3,3′-(phenyl-N-aminoethyl-1-methyl-3-aminopropoxyboryl)benzyl) ether]	< 3000 nM
NC(COB(c1ccccc1)c1ccc(COCc2ccc(B(OCC(N)c3ccccc3)c3ccccc3)cc2)cc1)c1ccccc1 (stereo not drawn) [Example 164, Bis(4,4′-(phenyl-2-phenyl-2-amino-ethoxyboryl)benzyl) ether]	< 3000 nM
Bis(4,4′-(phenyl-N-methylpiperidine-methoxyboryl)benzyl) ether [Example 139]	< 3000 nM
